From paper PMC12293498 come the findings set out here.

Amino acid sequences for entries named in this document (tags omitted).
UniProt P08238: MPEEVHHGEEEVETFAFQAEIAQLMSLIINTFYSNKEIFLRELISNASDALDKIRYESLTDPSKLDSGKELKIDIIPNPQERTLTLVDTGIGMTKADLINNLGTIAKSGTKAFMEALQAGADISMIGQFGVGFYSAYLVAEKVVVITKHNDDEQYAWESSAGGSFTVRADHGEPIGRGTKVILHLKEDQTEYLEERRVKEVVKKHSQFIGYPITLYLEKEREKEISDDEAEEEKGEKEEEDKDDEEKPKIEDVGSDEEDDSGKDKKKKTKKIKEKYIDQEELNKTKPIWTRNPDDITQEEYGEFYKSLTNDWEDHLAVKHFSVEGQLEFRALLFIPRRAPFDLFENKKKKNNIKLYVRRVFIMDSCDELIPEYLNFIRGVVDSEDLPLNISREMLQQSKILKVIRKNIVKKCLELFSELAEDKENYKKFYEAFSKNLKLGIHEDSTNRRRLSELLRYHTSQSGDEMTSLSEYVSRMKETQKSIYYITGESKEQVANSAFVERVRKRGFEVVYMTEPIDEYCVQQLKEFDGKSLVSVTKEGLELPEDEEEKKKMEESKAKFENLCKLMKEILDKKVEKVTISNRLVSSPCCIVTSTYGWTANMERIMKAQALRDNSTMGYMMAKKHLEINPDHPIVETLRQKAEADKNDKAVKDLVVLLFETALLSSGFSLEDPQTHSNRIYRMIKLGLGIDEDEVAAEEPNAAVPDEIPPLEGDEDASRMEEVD
UniProt Q96SC8: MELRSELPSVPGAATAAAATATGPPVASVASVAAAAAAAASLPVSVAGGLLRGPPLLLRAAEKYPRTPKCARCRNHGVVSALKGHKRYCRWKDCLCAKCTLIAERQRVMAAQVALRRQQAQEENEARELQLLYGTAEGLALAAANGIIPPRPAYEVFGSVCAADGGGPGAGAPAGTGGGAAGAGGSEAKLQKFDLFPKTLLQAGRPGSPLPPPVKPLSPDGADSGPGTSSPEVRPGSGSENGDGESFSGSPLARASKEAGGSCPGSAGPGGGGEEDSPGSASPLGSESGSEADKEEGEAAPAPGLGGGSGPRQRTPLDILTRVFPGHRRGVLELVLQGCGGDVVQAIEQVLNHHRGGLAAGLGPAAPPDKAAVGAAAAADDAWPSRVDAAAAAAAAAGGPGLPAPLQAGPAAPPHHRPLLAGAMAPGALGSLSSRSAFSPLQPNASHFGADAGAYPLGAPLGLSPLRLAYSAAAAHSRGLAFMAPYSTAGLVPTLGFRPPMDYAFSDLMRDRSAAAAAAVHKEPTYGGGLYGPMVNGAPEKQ

For one experiment, the target named is HSP90β, transfected (UniProt P08238). The experiment in a line: co-IP; A549 cells co-transfected with HSP90β and p53, with gradient overexpression of DMRTA2; p53 bound to HSP90β detected.
Experiment [1] has as its target DMRTA2, endogenous (human (endogenous in human lung cell lines; the line is not stated)) (UniProt Q96SC8). The experiment is described as follows: co-IP; endogenous immunoprecipitation; NP40 lysate, Protein A + G agarose, overnight at 4 °C, IgG control; cells and precipitating antibody not stated.
Experiment [2] addresses DMRTA2 overexpressed from the pCMV6-Flag-DMRTA2 plasmid (human) (UniProt Q96SC8). The experiment is described as follows: co-IP; exogenous immunoprecipitation (overexpressed DMRTA2); NP40 lysate, Protein A + G agarose, overnight at 4 °C, IgG control; cells and precipitating antibody not stated.

These are yes or no findings as the source states them, for the method shown. Binding seen in cells or lysates may run through a third protein. Some entries that bind do so weakly or less than the wild type.

As for “DMRTA2 overexpressed from the pCMV6-Flag-DMRTA2 plasmid (from UniProt Q96SC8 1-542)”, the binding entry with HSP90β, transfected is on record as “binds”. As for “HSP90β, endogenous (from UniProt P08238 1-724)”, the binding entry in experiment [1] and in experiment [2] was “binds” each time.
